This experiment addresses T1, CFP-RapA (Bacillus subtilis 168, UniProt Q00828 1-378).
T1 construct: RapA, Rap-family RRNPP-type receptor (response regulator aspartate phosphatase A) of Bacillus subtilis; rapA amplified from B. subtilis 168 genomic DNA; ecfp(Bs) is joined to the N-terminus of RapA by a GSGGV linker; also called RapA receptor; RapA-CFP; source: B. subtilis reporter strain BIB625 (ΔrapA-phrA Δspo0F), IPTG-induced from the amyE locus, in living cells; not shown: eCFP(Bs), …
T1 sequence (looked up): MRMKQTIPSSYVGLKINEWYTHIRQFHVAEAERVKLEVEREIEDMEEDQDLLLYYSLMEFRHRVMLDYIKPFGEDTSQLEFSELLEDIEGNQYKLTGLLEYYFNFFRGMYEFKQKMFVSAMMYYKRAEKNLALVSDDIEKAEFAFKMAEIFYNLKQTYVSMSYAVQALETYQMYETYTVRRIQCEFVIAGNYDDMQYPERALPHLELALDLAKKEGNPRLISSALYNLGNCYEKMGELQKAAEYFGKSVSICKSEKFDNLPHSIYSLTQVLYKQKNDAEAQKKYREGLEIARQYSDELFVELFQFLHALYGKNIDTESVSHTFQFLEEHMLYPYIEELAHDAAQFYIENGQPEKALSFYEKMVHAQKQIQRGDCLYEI
The experiment in a line: FRET or BRET; E-FRET imaging of single B. subtilis reporter cells, stimulated with PhrA.

From publication PMC7055314, “Ratiometric population sensing by a pump-probe signaling system in Bacillus subtilis” (Nature Communications, 2020) come the findings set out here.

These are yes or no findings as the source states them, for the method shown. Binding seen in cells or lysates may run through a third protein. Some results given as binding are weak or reduced against the parent protein; the word gives no strength. Tags and fused reporters may be left off the sequences shown.

B1: Spo0F-YFP (protein, UniProt P06628 1-124)
chain: MMNEKILIVDDQYGIRILLNEVFNKEGYQTFQAANGLQALDIVTKERPDLVLLDMKIPGMDGIEILKRMKVIDENIRVIIMTAYGELDMIQESKELGALTHFAKPFDIDEIRDAVKKYLPLKSN
For B1, the binding entry is listed as “binds”.
